Tested on: C. albicans
Test: C. albicans growth assay in liquid media
Type: cell-based
Experimental: Growth on liquid media. C. albicans strains were grown at 30 °C in SC medium to an OD600 of 0.5–0.8. For the evaluation of growth defects related to Bdf1 mutations, log-phase growing cells were counted using a Neubauer chamber and diluted in liquid media to a final concentration of 5,400 cells per ml per well in a sterile 96-well plate. Dox (50 μg ml^−1) or methionine (5 mM)/cysteine (0.25 mM) were added to the media if required. Plates were incubated at 30 °C and OD600 was measured using a Multiskan FC Microplate Photometer (Thermo Fisher). For the evaluation of chemical compounds, strains were grown in SC medium supplemented with 50 μg ml^−1 Dox or 5 mM methionine/0.25 mM cysteine 24 h before counting and then seeded in 96-well plates at the same concentration as mentioned above, with or without chemical compounds. Statistical tests were performed using two-sided Welch t-tests.

Structure (SMILES): CN1C(=O)c2ccccc2Sc2cc(NC(=O)C3CCCO3)ccc21 (centres unmarked) [Compound 3]
- cell shift of EC50 relative to the IC50 value determined by HTRF: 20 fold
- cell shift of EC50 relative to the Kd by ITC: sevenfold

Reference: paper PMC5454392, “Selective BET bromodomain inhibition as an antifungal therapeutic strategy” (Nature Communications, 2017)
